Experimental data taken from paper PMC6197184, “Cyclophilin J limits inflammation through the blockage of ubiquitin chain sensing” (Nature Communications, 2018).
These are yes or no findings as the source states them, for the method shown. For part of these data: A result given as binding can be weak or reduced; the word gives no strength. Where a sequence is shown, tags or fusion partners need not be part of it. For part of these data: In cells and extracts the contact can be indirect. One block for each molecule: values may come before it.

What was measured:
[1] = target: T1, Flag-TAB2 (full-length TAK1-binding protein 2) (UniProt Q9NYJ8); experiment: co-IP; 293T cells co-transfected with tagged proteins; lysates immunoprecipitated with tag antibodies and protein G beads at 4 °C overnight, washed with IP buffer (50 mM Tris-HCl pH 7.4, 150 mM NaCl, 1% Nonidet P40), immunoblot; reciprocal; competition co-IP with CYPJ overexpression
T1 sequence: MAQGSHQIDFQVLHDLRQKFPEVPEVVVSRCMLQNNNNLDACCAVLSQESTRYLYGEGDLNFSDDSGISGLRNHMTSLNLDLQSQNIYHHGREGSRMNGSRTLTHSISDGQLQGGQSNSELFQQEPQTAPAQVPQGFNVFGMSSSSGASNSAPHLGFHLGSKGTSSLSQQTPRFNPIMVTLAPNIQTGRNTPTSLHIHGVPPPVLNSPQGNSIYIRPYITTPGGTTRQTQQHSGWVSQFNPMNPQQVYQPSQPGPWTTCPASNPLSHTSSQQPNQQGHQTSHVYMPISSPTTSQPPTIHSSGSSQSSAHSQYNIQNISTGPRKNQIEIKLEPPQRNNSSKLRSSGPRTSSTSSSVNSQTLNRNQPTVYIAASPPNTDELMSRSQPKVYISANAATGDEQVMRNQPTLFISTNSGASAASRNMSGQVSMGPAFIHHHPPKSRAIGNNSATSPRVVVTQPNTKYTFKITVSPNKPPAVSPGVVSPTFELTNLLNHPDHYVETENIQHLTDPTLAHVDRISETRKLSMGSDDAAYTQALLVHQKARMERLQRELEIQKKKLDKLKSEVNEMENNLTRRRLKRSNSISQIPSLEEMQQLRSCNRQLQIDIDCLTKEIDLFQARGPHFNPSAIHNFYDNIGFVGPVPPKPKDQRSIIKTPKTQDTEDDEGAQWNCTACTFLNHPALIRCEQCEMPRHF

[2] = target: T2, Flag-TAB3 (UniProt Q8N5C8); experiment: as above
T2 sequence: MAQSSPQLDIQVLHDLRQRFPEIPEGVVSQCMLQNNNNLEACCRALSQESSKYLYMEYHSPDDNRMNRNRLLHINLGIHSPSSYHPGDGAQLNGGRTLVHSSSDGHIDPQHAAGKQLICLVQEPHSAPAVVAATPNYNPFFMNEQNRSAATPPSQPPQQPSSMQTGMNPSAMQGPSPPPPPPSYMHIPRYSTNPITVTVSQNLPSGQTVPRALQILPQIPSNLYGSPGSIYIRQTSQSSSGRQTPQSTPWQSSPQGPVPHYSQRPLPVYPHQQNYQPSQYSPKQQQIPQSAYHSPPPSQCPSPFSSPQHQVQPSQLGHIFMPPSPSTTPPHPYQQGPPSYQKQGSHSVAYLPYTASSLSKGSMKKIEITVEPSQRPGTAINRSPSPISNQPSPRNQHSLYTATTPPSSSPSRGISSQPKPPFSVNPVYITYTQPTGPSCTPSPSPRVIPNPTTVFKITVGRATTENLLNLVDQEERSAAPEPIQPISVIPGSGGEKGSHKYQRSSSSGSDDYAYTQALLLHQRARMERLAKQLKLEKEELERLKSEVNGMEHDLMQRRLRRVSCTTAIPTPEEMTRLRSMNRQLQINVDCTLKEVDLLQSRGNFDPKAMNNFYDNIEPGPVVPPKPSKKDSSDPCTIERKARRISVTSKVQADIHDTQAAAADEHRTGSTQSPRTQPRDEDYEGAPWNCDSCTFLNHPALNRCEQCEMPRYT

[3] = target: GST-TAB2 ΔCC&NZF; experiment: pull-down; GST or GST fusion proteins from E. coli on Glutathione Sepharose 4B incubated with lysates of transfected 293T cells at 4 °C overnight; washed with PBS or IP buffer; immunoblot; only the target purified
[4] = target: GST-TAB2 ΔCUE; experiment: as above
[5] = target: GST-TAB2 ΔNZF; experiment: as above
[6] = target: GST-TAB2-NZF (GST-fused NZF domain of TAB2); experiment: as above
[7] = target: GST-TAB3-NZF (GST-fused NZF domain of TAB3); experiment: as above
[8] = target: GST-fused NZF domain of NEMO; experiment: as above
[9] = target: Flag-TAB2 ΔCC&NZF; experiment: co-IP; 293T cells co-transfected with tagged proteins; lysates immunoprecipitated with tag antibodies and protein G beads at 4 °C overnight, washed with IP buffer (50 mM Tris-HCl pH 7.4, 150 mM NaCl, 1% Nonidet P40), immunoblot; reciprocal; competition co-IP with CYPJ overexpression
[10] = target: Flag-TAB2 ΔCUE; experiment: as above
[11] = target: Flag-TAB2 ΔNZF; experiment: as above
[12] = target: GST-TAB2-NZF (GST-fused NZF domain of TAB2); experiment: pull-down; E. coli-expressed GST and GST-fused NZF domains with E. coli-expressed His-CYPJ; both purified
[13] = target: GST-TAB3-NZF (GST-fused NZF domain of TAB3); experiment: as above
[14] = target: GST-fused NZF domain of SHARPIN; experiment: as above
[15] = target: GST-fused second NZF domain of HOIP; experiment: as above

binding [1]: no binding | binding [2]: no binding
Molecule: CYPJ-Δ3 (HA-tagged CYPJ with a deletion of fragment-3) (human) (domain or fragment)

binding [3]: no binding | binding [4]: binds | binding [5]: no binding | binding [6]: binds | binding [7]: binds | binding [8]: no binding | binding [9]: no binding | binding [10]: binds | binding [11]: no binding
B1: HA-CYPJ (HA-tagged full-length cyclophilin J) (protein, UniProt Q9H2H8 1-161)
chain: MSVTLHTDVGDIKIEVFCERTPKTCENFLALCASNYYNGCIFHRNIKGFMVQTGDPTGTGRGGNSIWGKKFEDEYSEYLKHNVRGVVSMANNGPNTNGSQFFITYGKQPHLDMKYTVFGKVIDGLETLDELEKLPVNEKTYRPLNDVHIKDITIHANPFAQ

binding [12]: binds | binding [13]: binds | binding [14]: binds | binding [15]: binds
B2: His-CYPJ (recombinant) (protein, UniProt Q9H2H8 1-161)
chain: B1 chain
